# Assay results published in publication PMC7819943, “Rice protein-binding microarrays: a tool to detect cis-acting elements near promoter regions in rice”.
# The other results are listed elsewhere or left out.
# Molecular target: T1, OsSMF1 (Oryza sativa, UniProt Q6ZLB0 1-436)
# T1 sequence: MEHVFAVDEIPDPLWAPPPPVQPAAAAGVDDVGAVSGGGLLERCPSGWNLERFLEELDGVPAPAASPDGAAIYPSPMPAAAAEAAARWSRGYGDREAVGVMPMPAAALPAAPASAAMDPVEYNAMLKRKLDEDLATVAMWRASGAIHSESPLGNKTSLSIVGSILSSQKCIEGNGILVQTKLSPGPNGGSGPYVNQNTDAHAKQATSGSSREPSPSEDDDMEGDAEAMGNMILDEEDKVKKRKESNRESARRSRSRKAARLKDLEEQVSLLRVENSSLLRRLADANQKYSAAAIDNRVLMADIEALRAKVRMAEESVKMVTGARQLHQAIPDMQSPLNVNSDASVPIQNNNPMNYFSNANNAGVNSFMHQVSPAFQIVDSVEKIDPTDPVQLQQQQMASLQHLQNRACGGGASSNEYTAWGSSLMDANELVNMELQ
# Experiment: protein-binding microarray (RPBM); PBS, 2% BSA, 51.3 ng/ul salmon testes DNA, 50 uM zinc acetate, 200 nM TF, 25 C, 1 h; high values mean tight binding
# Conditions: protein: recombinant; tags: N-terminal polyhistidine and DsRed monomer fusion (pET32a); chain copies: 2; label: CyDye5-dUTP incorporated in the synthesized complementary strand; 3' TTTTT single-stranded linker to array surface; dsDNA, one strand shown
# Outline: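 Using Ni–NTA, transcription factors fused N-terminally to polyhistidine and DsRed were purified after expression in E. coli BL21-CodonPlus. These were incubated at 200 nM with a blocked, double-stranded custom Agilent array for 1 h at 25 °C in a buffer containing 50 µM zinc acetate, and the array was washed. The binding signal is per-feature fluorescence intensity (arbitrary units) on an Axon 4000B scanner.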
row,Sequence,binding signal
1,GCAGCGGCGGCTTGCTTCCGAAGCGAGCAATGCATGGCGCCGGAGTCACCTAGTGCAG,3380 fluorescence intensity (a.u.)
2,CCTCTGAACTCTCTGGTAGCCATGGTGACAACATCAATCGCGGAGTCACCTAGTGCAG,3520 fluorescence intensity (a.u.)
3,ATGATGAGTAGGAGTTTGTGCAGGTGGACGGCGGTGGTGGCGGAGTCACCTAGTGCAG,3180 fluorescence intensity (a.u.)
4,GCGGTGCAACGGTGGCTACAGCGTCCAGGTTGTCGTGATGCGGAGTCACCTAGTGCAG,4410 fluorescence intensity (a.u.)
5,ATATTTATAATTAGTGTCCAAACATCCGATGTGACAGGGACGGAGTCACCTAGTGCAG,4920 fluorescence intensity (a.u.)
6,GCGTGAGTGCGGAAAACGAGGGGAGGGGTTGGGAACTTGACGGAGTCACCTAGTGCAG,3300 fluorescence intensity (a.u.)
7,GCAGTCCCGGGTCACTGACCGTTTTGACCACCGGTGACCTCGGAGTCACCTAGTGCAG,4360 fluorescence intensity (a.u.)
8,ACAGTAACCCACATGTGCTAATGACGGATTAATTAGGCTTCGGAGTCACCTAGTGCAG,4110 fluorescence intensity (a.u.)
9,ACACGAGACCCCATCCGCACGTCACCCTCCACGTCATGGACGGAGTCACCTAGTGCAG,31600 fluorescence intensity (a.u.)
10,GAAAGTGAAGCCTGTGGCGCACACGACACGACCTCCTCAACGGAGTCACCTAGTGCAG,3320 fluorescence intensity (a.u.)
11,CTGTCGCTTTAGCTCCTGAAACAAATGACACCACTGCTAGCGGAGTCACCTAGTGCAG,3180 fluorescence intensity (a.u.)
12,ATCAGCTCGCCCTCCTTAGCGTGACATAGAGCTTTCCACTCGGAGTCACCTAGTGCAG,3170 fluorescence intensity (a.u.)
13,TCCACTGACTCCGGGTGTTGGTTTGAATCATACGTAGACGCGGAGTCACCTAGTGCAG,4040 fluorescence intensity (a.u.)
14,TTTCTGCTGTAGTTTACAATGACTAAGCTAATAACCTTTGCGGAGTCACCTAGTGCAG,3610 fluorescence intensity (a.u.)
15,GTCAGCGCCAACTTACTTGGCGCTGAGGTTGTGCACCTCACGGAGTCACCTAGTGCAG,3160 fluorescence intensity (a.u.)
16,ATTTCTTTAGATTTGATGACTATAGCACCTTCGTTCCATACGGAGTCACCTAGTGCAG,3610 fluorescence intensity (a.u.)
17,TCCAGCCACGCCCGCGCTCCCTCCCACTTCCCCGCCATTACGGAGTCACCTAGTGCAG,3150 fluorescence intensity (a.u.)
18,AGGATGCAAACAGGTCAGAGTGATGTGTTACTTCCAAGGCCGGAGTCACCTAGTGCAG,8160 fluorescence intensity (a.u.)
19,TGTCGCTTTCTCGTAGTCATGTTCGTGAATCATGGATGTGCGGAGTCACCTAGTGCAG,4590 fluorescence intensity (a.u.)
20,TGCAGCGAGGCCGGCGTGTTGCCACGGTGGATCTGTGAATCGGAGTCACCTAGTGCAG,8000 fluorescence intensity (a.u.)
21,CTTCTTCGGATCACTCGGTTGGTTTCTTGGTTTCTTGGTTCGGAGTCACCTAGTGCAG,3140 fluorescence intensity (a.u.)

# Random excerpt: 2 records from the list.
row,Sequence,binding signal
12,ATCAGCTCGCCCTCCTTAGCGTGACATAGAGCTTTCCACTCGGAGTCACCTAGTGCAG,3170 fluorescence intensity (a.u.)
4,GCGGTGCAACGGTGGCTACAGCGTCCAGGTTGTCGTGATGCGGAGTCACCTAGTGCAG,4410 fluorescence intensity (a.u.)

# Later entries:

row,Sequence,binding signal
1,ATTATCCTCGTCGGTCGCCGGCACGCCGCAACGTCAGCCCCGGAGTCACCTAGTGCAG,6820 fluorescence intensity (a.u.)
2,CCCCGCCGTCCATCCACCTCACCGACGGCCGGATGCGCCCCGGAGTCACCTAGTGCAG,3810 fluorescence intensity (a.u.)
3,GTTGGTTTGATGTTGGTTTTGGTCCTACGTGGCGTATCAGCGGAGTCACCTAGTGCAG,21400 fluorescence intensity (a.u.)
4,GTTGCGGTCGTCGTCCACCTCCGCCGCCTCTTCGCCATCTCGGAGTCACCTAGTGCAG,3330 fluorescence intensity (a.u.)
5,CCCTTTCGGACCCTCGTCACTCATCGTCGTTTGCCCGGCGCGGAGTCACCTAGTGCAG,4530 fluorescence intensity (a.u.)
6,ATACTCTAAATTAGTGTCCAAACATCCGATGTGACATGGACGGAGTCACCTAGTGCAG,5080 fluorescence intensity (a.u.)
7,CTGCGATTCGTCGCGCGGCGTTCTCGCGGGATCCACCGGTCGGAGTCACCTAGTGCAG,3220 fluorescence intensity (a.u.)
8,AATTCATCCTATGACGGCTTTACTGAACCTTGATTTATATCGGAGTCACCTAGTGCAG,3770 fluorescence intensity (a.u.)
9,GCTTCCTGCGTGACAAGCTGTTGTCCGGGGTGCTCGCCAACGGAGTCACCTAGTGCAG,32200 fluorescence intensity (a.u.)
10,CTTCGTTCACTCCGCCTACCTACCTACCTCTGCAGTTGGTCGGAGTCACCTAGTGCAG,16400 fluorescence intensity (a.u.)
11,GATGCTTGCATCGATGAAGTCCATCGTCAGATATATATCGCGGAGTCACCTAGTGCAG,3600 fluorescence intensity (a.u.)
12,ATATTGATTTGTAACATCACAGACACACATGATCTTTAGCCGGAGTCACCTAGTGCAG,3530 fluorescence intensity (a.u.)
13,GAGGAGGTGGCCGCGTCACTCCCCGCTCCGGCGATCCGGCCGGAGTCACCTAGTGCAG,7790 fluorescence intensity (a.u.)
14,GGATTACTGGTCTACTACTCCAACCCCGTGGCCACCGTGGCGGAGTCACCTAGTGCAG,6880 fluorescence intensity (a.u.)
15,GTGTTCGTTATTCCAGATTGGGAACTTATCCCTTTCCATGCGGAGTCACCTAGTGCAG,11500 fluorescence intensity (a.u.)
16,ACATATGGTGCCCACTATATGCCACGTCTGTGAAACCGAGCGGAGTCACCTAGTGCAG,10600 fluorescence intensity (a.u.)
17,ACCCACCGCCGCAACACGCGCTCCACCGCCAACACATCGCCGGAGTCACCTAGTGCAG,4660 fluorescence intensity (a.u.)
18,TTGCCAAGCTTGAGGACCTTGCCGTGTACCACTTGTAGAACGGAGTCACCTAGTGCAG,32800 fluorescence intensity (a.u.)
19,GATGACACAGTAGTACTCCTAGGCACGTACGTACTTTCTCCGGAGTCACCTAGTGCAG,3620 fluorescence intensity (a.u.)
20,ACCGTGAGATGGACACGTCATTGCTATTCACATGAGATGTCGGAGTCACCTAGTGCAG,13700 fluorescence intensity (a.u.)
21,TTCTCCGGCACCTCCGGCTGGTGCGACACGCGGTTCGTGCCGGAGTCACCTAGTGCAG,3450 fluorescence intensity (a.u.)
